These are yes or no findings as the source states them, for the method shown. In cells and extracts the contact can be indirect. Some binding calls cover weakened binding; strength is not graded here.

The chains behind the UniProt entries cited, without tags or fusion partners. Where a name states a change or a piece, a line headed by the entry shows the natural chain unless it says otherwise. Residues count along the entry.
UniProt Q13309: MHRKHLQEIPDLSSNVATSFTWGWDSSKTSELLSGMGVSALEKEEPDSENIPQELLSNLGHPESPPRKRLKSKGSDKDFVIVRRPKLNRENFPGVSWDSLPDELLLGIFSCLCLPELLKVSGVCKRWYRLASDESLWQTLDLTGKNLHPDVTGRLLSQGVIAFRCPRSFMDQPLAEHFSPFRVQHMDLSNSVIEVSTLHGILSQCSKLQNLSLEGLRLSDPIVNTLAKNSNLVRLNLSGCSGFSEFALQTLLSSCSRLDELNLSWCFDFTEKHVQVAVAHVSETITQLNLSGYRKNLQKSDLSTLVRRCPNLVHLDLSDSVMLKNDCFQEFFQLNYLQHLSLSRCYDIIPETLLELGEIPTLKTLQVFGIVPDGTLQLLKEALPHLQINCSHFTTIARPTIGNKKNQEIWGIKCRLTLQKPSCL
Skp2^Δ45 (N-terminal aa1-45 deletion mutant): residues 46-424 of Q13309
UniProt P18754: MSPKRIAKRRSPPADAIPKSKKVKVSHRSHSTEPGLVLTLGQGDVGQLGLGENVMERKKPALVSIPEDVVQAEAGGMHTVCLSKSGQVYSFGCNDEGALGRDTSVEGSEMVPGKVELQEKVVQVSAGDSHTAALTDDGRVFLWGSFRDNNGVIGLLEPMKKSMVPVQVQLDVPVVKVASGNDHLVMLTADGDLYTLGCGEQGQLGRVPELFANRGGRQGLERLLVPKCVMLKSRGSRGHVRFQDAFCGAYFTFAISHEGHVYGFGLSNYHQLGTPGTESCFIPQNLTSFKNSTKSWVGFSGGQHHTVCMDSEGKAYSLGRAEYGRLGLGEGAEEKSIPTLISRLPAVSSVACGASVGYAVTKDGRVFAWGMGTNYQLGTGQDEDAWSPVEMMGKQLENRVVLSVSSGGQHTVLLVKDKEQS

Test [1] deals with S-phase kinase-associated protein-2 (Skp2), endogenous (human (endogenous in SW872)) (UniProt Q13309). Kind of test: co-IP; endogenous co-immunoprecipitation from total protein of SW872 cells (shRCC1 or shScr); IP buffer 250 mM NaCl, 50 mM Tris, 0.5 mM EDTA, 0.5% NP-40; indicated antibody and protein A-agarose overnight at 4 °C; western blot. (In general: Immunoblotting shows a protein as a band on a membrane.)

The next test deals with Myc-Skp2 (Skp2^WT) (UniProt Q13309). Nature of the test: co-IP; exogenous co-immunoprecipitation from HEK 293T cells transfected 48 h; IP buffer 250 mM NaCl, 50 mM Tris, 0.5 mM EDTA, 0.5% NP-40; indicated antibody and protein A-agarose overnight at 4 °C; RCC1 detected by anti-flag (M2), Skp2 by anti-myc.
The target of test [2] is Skp2^Δ45 (N-terminal aa1-45 deletion mutant) (UniProt Q13309). Described as above.

As for “Regulator of chromosome condensation 1 (RCC1), endogenous (from UniProt P18754 1-421)”, the binding result in test [1] was “binds”.

As to Flag-RCC1 (from UniProt P18754 1-421), the binding result is recorded as “binds” with Myc-Skp2 (Skp2^WT) and “no binding” in test [2].

Source of the values: PMC10985091.
